PubChem BioAssay AID743454, Peter MacCallum Cancer Centre | 2014
Purpose: 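Knock-downs lowering viability or raising caspase 3/7 activity in vorinostat-treated resistant cells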 (primary screen). Cell system: human HCT116-VR colon cancer cells, selected for vorinostat resistance. Knock-down reagent: siRNA pool against human genes, 40 nM siRNA pool. Timing: vorinostat for 24 h, read-out about 72 h after transfection. Conditions: vorinostat at 2.5 µM final. Detection: 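Cell viability by CellTiter-Fluor and caspase 3/7 activity by luminescence, each scaled to mock wells per plate, duplicates averaged, then robust z-scored over all plates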. Direction: viability robust z-score: higher = more viable cells than screen typical; caspase robust z-score: higher = more caspase 3/7 activity than screen typical. Active means: 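a knock-down is a hit when classed RV1 or RV2 for lowered viability, or CA1 or CA2 for caspase activation; those lethal without drug were dropped; hits were retested singly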.
Here is one part, drawn at random, of about 18,000 deposited reagents. In the full data, 450 (2.5%) were called active. 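Single biological run; no consistent viability z cut-off exists, so the class columns, not z-scores, define the calls.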

| gene | PubChem SID | viability hit class | caspase hit class | viability robust z-score | caspase robust z-score | Outcome |
| --- | --- | --- | --- | --- | --- | --- |
| IRF2 | SID135622181 | no change | no change | 1.38 | -0.26 | inactive |
| SEMA4C | SID152153723 | no change | no change | 0.24 | -0.92 | inactive |
| NINL | SID152150152 | no change | no change | 1.17 | 0.2 | inactive |
| RBPMS2 | SID134323138 | no change | CA1 (caspase activation) | -1.84 | 6.8 | active |
| PRKAB2 | SID134312706 | no change | no change | -0.18 | -1.32 | inactive |
| TNPO2 | SID134324185 | no change | no change | -2.1 | 1.45 | inactive |
| PPL | SID134321748 | no change | no change | 1.04 | -0.66 | inactive |
| ANXA3 | SID152146960 | no change | no change | 1.19 | -0.36 | inactive |
| RHBG | SID152148628 | no change | no change | -0.56 | 0.25 | inactive |

Next part; the last 3 above are carried over.
| gene | PubChem SID | viability hit class | caspase hit class | viability robust z-score | caspase robust z-score | Outcome |
| --- | --- | --- | --- | --- | --- | --- |
| PPL | SID134321748 | no change | no change | 1.04 | -0.66 | inactive |
| ANXA3 | SID152146960 | no change | no change | 1.19 | -0.36 | inactive |
| RHBG | SID152148628 | no change | no change | -0.56 | 0.25 | inactive |
| RAB36 | SID134314285 | no change | no change | -0.92 | -0.14 | inactive |
| ZIC5 | SID152151921 | no change | no change | 1.92 | -0.48 | inactive |
| NXPH3 | SID134317033 | no change | no change | -1.63 | 0.89 | inactive |
| GCNT2 | SID152152301 | no change | no change | 0.14 | -0.63 | inactive |
| PIBF1 | SID152156314 | no change | no change | 1.01 | -0.48 | inactive |
| SLC6A19 | SID152152602 | no change | no change | 1.38 | -0.24 | inactive |
| CRIM1 | SID134313362 | no change | CA1 (caspase activation) | -0.54 | 5.38 | active |
| KCNAB3 | SID134313695 | no change | no change | 0.55 | -0.4 | inactive |
| SLC2A10 | SID134312556 | no change | no change | 0.43 | 0.7 | inactive |
| HSD17B2 | SID134314214 | no change | no change | 0.71 | 1.27 | inactive |
| SLC67A1 | SID134312498 | no change | no change | -1.5 | 4.88 | inactive |
| NLRP2 | SID152155303 | no change | no change | 1.25 | 0.6 | inactive |
| TATDN1 | SID152146933 | no change | no change | -0.3 | 0.6 | inactive |
| XAGE5 | SID134321432 | no change | no change | 0.06 | 0.54 | inactive |
